Source: US20250222123A1 (ABTIS CO., LTD., priority 2022, published 2025)

Legend:
[1] = general procedure: Fmoc solid-phase peptide synthesis; rink amide resin (0.48 mmol/g, Peptides International, USA); conditions: whole synthesis, analytical HPLC, scale of the general procedure 0.25 mmol, one disulfide bridge, sequence written open; run 1
[2] = general procedure: Fmoc solid-phase peptide synthesis; rink amide resin; conditions: whole synthesis, analytical HPLC, scale 0.25 mmol, one disulfide bridge, sequence written open; run 1

Substance: PEG8-DCAWHOrnGELVWCT-NH2
- final HPLC purity [1]: 90% or higher
- final HPLC purity [2]: 99.9%
